According to the supplement of paper PMC12823440, “Inhibitors supercharge kinase turnover through native proteolytic circuits” (Nature, 2025):
Counter-ions that a name gives are not always drawn. This is one part of the list. The calls rarely recur for the same compound in another form.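 Kinases, fused to nanoluciferase, were expressed in K562 cells; luminescence was measured every 4 h from 2 to 18 h as percent of control (DMSO = 100%, positive control = 0%). A time point is decreased if signal falls significantly (2 sigma). Hits were called by the authors by a rule that is not shown; the count of time points alone does not decide it.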

By UniProt entry, the sequences of proteins in these tests, tags left out. Where a name states a change or a piece, a line headed by the entry shows the natural chain unless it says otherwise.
UniProt P07948: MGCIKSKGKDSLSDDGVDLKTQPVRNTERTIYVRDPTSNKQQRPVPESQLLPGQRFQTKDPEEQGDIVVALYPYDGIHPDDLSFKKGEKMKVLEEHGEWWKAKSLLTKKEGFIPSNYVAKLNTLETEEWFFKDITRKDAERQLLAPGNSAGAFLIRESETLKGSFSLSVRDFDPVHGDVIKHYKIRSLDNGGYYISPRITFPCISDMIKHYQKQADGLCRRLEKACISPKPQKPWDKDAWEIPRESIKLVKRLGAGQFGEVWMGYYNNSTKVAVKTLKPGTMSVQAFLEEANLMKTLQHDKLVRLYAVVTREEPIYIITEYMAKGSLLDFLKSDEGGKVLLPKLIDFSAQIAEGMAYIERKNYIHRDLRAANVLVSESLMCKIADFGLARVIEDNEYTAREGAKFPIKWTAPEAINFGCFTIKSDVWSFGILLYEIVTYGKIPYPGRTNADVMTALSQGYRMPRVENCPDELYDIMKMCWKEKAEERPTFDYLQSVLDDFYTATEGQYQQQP
UniProt Q12851: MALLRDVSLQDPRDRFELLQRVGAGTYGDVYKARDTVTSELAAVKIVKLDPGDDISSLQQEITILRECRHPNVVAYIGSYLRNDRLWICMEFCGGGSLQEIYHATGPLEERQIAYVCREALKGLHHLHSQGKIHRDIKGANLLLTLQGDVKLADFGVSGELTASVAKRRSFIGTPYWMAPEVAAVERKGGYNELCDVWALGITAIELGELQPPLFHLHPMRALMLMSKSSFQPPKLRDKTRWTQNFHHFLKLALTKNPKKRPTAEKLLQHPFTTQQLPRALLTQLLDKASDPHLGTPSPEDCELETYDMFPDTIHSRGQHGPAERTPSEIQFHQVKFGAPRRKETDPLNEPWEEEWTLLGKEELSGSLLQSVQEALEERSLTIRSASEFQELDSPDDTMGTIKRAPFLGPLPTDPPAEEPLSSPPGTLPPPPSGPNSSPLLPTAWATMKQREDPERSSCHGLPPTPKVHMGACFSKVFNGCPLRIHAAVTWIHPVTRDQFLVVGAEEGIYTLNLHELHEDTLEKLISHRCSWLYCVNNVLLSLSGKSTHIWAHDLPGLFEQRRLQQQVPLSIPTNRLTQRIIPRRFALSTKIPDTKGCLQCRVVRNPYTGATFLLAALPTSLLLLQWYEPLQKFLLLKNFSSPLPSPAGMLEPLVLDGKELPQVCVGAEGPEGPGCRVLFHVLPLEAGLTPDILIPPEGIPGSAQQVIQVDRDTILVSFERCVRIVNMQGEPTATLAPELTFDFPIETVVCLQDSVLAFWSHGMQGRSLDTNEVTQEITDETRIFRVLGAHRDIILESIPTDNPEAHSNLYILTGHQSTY
UniProt Q16620, whole entry, looked up: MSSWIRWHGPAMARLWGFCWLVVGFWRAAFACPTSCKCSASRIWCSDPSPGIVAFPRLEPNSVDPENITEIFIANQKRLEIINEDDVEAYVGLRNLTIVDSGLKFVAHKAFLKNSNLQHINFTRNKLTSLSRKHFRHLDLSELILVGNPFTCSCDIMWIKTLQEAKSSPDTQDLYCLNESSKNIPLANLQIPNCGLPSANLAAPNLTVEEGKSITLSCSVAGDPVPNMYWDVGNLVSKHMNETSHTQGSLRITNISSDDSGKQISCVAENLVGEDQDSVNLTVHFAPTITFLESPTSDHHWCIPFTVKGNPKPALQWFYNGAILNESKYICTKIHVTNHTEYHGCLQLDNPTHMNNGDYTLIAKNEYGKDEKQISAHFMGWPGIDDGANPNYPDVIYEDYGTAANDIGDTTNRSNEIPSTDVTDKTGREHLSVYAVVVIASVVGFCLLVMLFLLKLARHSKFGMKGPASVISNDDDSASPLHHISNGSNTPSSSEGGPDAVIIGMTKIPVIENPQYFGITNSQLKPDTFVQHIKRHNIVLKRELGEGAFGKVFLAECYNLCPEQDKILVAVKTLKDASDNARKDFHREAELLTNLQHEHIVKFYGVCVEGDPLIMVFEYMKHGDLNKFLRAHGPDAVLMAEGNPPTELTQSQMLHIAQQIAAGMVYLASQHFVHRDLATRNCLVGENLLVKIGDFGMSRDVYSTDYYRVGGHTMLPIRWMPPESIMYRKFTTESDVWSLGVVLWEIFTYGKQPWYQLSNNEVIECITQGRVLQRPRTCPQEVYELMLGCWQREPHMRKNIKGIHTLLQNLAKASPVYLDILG
UniProt Q16288, whole entry, looked up: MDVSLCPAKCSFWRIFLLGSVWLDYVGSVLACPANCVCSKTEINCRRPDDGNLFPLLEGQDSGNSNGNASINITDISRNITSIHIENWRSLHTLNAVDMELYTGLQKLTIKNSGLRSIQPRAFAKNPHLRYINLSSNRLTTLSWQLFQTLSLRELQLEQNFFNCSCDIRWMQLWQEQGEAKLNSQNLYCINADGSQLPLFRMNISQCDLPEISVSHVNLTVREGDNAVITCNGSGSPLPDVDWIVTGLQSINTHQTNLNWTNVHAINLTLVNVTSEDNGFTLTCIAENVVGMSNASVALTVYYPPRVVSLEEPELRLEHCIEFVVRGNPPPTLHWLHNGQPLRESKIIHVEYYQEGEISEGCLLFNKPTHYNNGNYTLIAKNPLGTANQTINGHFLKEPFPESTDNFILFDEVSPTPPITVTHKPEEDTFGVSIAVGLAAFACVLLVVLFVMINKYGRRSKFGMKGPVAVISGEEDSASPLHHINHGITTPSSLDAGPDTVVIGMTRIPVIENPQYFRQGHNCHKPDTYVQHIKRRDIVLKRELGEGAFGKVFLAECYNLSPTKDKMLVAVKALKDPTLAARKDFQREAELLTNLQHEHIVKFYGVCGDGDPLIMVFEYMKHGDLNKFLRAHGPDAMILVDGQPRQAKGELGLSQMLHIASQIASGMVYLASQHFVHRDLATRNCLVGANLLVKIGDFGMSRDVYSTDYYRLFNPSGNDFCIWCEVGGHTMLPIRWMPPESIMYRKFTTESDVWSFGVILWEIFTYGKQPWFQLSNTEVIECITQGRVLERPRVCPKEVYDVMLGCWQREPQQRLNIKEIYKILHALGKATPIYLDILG
UniProt O15530: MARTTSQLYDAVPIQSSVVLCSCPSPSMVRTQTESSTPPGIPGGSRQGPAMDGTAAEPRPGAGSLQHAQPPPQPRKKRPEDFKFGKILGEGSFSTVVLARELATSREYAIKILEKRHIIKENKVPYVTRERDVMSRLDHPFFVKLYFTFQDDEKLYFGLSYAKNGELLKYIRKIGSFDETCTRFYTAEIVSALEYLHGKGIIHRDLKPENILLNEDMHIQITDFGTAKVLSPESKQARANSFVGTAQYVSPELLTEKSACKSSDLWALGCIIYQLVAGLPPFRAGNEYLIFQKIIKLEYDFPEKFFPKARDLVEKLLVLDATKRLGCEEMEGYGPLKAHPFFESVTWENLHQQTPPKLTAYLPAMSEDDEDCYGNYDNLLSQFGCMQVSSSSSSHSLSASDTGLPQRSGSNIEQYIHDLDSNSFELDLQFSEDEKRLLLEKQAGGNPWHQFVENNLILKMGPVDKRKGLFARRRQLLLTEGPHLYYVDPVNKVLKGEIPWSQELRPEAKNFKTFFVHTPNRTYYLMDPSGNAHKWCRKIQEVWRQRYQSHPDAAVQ
UniProt P42356, whole entry, looked up: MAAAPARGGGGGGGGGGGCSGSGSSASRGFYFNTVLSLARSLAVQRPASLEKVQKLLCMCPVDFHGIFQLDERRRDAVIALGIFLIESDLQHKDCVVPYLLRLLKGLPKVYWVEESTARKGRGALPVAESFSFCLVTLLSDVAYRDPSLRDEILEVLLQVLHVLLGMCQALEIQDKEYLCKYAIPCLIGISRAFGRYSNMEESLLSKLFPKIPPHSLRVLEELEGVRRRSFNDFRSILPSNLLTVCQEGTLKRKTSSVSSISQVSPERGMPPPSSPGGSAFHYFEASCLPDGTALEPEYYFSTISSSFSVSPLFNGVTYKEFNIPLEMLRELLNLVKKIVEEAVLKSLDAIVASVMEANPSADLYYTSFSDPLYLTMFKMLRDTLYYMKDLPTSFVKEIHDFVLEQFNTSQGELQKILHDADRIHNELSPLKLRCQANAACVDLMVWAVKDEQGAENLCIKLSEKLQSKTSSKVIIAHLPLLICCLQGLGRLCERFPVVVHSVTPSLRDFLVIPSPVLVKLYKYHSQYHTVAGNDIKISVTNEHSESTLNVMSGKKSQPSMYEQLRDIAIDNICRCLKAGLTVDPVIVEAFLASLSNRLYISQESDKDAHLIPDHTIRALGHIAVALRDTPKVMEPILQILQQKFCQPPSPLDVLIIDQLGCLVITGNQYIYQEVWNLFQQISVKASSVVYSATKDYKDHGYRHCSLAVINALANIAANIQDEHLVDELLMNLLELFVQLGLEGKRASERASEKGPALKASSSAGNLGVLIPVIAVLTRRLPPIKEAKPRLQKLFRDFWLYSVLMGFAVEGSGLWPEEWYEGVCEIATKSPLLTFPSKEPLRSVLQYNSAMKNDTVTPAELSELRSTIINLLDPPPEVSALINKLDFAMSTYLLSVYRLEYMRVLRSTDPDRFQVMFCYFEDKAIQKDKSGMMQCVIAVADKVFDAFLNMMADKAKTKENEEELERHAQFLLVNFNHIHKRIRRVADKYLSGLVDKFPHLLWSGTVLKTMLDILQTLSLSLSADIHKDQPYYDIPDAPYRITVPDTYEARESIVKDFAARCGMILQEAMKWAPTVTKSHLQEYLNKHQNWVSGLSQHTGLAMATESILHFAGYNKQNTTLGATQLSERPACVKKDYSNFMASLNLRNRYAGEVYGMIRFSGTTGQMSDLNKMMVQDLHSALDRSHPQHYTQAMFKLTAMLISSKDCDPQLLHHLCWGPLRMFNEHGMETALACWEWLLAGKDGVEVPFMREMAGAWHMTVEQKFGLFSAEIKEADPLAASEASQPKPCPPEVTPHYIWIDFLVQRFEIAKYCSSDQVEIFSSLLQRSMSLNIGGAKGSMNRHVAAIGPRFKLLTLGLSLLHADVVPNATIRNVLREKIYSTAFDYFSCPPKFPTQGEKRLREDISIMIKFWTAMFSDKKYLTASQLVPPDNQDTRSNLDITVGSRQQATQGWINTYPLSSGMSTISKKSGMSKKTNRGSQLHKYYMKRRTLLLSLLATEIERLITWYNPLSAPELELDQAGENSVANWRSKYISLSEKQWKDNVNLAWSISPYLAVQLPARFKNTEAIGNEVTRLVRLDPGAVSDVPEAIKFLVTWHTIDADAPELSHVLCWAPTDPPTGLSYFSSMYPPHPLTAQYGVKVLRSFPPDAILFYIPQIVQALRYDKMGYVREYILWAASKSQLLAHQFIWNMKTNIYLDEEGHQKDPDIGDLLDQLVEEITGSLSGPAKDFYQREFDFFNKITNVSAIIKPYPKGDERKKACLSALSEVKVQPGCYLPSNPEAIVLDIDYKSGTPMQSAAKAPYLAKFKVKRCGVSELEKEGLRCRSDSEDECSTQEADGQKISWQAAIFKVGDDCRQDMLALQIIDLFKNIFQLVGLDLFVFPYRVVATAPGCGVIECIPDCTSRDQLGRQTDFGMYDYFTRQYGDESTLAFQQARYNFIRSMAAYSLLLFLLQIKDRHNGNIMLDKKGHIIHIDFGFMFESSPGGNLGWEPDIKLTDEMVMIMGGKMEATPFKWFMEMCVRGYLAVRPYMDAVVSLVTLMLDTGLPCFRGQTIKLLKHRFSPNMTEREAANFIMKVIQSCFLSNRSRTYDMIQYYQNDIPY
UniProt Q9UBF8: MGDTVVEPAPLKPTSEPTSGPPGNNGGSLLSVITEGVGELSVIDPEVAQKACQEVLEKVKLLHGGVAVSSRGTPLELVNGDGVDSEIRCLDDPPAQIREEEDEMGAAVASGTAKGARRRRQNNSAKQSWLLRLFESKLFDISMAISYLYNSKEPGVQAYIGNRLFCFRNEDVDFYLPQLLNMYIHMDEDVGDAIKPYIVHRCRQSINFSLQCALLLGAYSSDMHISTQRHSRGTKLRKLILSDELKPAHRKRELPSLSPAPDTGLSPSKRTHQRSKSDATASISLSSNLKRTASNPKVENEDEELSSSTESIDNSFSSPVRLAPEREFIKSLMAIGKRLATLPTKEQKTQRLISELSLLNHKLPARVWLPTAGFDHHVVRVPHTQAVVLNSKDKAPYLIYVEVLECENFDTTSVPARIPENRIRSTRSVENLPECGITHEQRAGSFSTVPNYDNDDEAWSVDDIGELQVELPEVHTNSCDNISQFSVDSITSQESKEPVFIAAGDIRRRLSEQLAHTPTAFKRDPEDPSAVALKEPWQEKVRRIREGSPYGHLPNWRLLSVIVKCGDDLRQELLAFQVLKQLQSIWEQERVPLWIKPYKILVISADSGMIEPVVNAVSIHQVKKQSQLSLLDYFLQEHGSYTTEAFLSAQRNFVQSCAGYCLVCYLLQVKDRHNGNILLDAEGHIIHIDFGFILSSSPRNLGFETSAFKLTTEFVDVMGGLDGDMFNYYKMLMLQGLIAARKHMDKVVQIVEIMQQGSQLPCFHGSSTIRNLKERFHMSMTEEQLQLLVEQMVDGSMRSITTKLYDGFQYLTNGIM

Key:
Experiment in all cases: number of time points (of 5) at which kinase-Nluc abundance scored as decreased, DMSO-normalised (count); higher = more persistent destabilization
Conditions in all cases: K562; 2-18 h
LMTK2 = LMTK2 (UniProt Q8IWU2)
LYN = LYN (UniProt P07948)
MAP2K1 = MAP2K1 (UniProt Q02750)
MAP2K2 = MAP2K2 (UniProt P36507)
MAP4K2 = MAP4K2 (UniProt Q12851)
MAPK1 = MAPK1 (UniProt P28482)
MAPK4 = MAPK4 (UniProt P31152)
MAPKAPK2 = MAPKAPK2 (UniProt P49137)
MKNK1 = MKNK1 (UniProt Q9BUB5)
NTRK2 = NTRK2 (UniProt Q16620)
NTRK3 = NTRK3 (UniProt Q16288)
PAK4 = PAK4 (UniProt O96013)
PBK = PBK (UniProt Q96KB5)
PDGFRB = PDGFRB (UniProt P09619)
PDK1 = PDK1 (UniProt Q15118)
PDPK1 = PDPK1 (UniProt O15530)
PIK4CA = PIK4CA (UniProt P42356)
PIK4CB = PIK4CB (UniProt Q9UBF8)
PLK1 = PLK1 (UniProt P53350)
PRKAA1 = PRKAA1 (UniProt Q13131)

Measured: number of time points

CNC(=O)Nc1ccc(-c2cc(-c3ccnc(Nc4ccc(C)c(S(=O)(=O)N(C)C)c4)n3)ccn2)cc1 [hSMG-1 inhibitor 11e] (2.5 µM)
1: NTRK2 | NTRK3 | PDPK1 | PIK4CB
0: all other assays above

Nc1cc(Nc2ccc(S(N)(=O)=O)cc2)ncn1 (10 µM)
1: PDPK1
0: all other assays above

Cc1cc(NC(=O)c2cccc(NC(=O)/C=C/CN(C)C)c2)ccc1Nc1nccc(-c2cccnc2)n1 (10 µM)
2: LYN
0: all other assays above

CS(=O)(=O)c1ccc(-c2cnc(N)c(C(=O)Nc3ccccc3)n2)cc1 (10 µM)
0: all assays above

Two compounds drawn at random from those above:
Cc1cc(NC(=O)c2cccc(NC(=O)/C=C/CN(C)C)c2)ccc1Nc1nccc(-c2cccnc2)n1 (10 µM)
2: LYN
0: all other assays above

CS(=O)(=O)c1ccc(-c2cnc(N)c(C(=O)Nc3ccccc3)n2)cc1 (10 µM)
0: all assays above

Next part

COc1ccc(Cl)cc1NC(=O)Nc1cc(C)nc2ccccc12 (2.5 µM)
0: all assays above

CN(CC(=O)N(Cc1ccc(C2CCCCC2)cc1)c1ccc(C(=O)O)cc1)S(=O)(=O)c1c(F)c(F)c(F)c(F)c1F (2.5 µM)
0: all assays above

Cc1ccc(-c2c(C(=O)CF)n(CCCO)c3ncnc(N)c23)cc1 (10 µM)
0: all assays above

O=C(Nc1ccc2[nH]nc(-c3ccncc3)c2c1)[C@@H]1CCN(CC(=O)N2CCN(c3ccc(-c4ncccn4)cc3)CC2)C1 (2.5 µM)
0: all assays above

CNc1nc(Nc2cnn(C3CCN(C4COC4)CC3F)c2Cl)ncc1C(F)(F)F (stereo not given) (10 µM)
0: all assays above

COc1cc([N+](=O)[O-])ccc1S(=O)(=O)N1C[C@@H](CN2CCN(c3ccccn3)CC2)[C@H](c2cccc(F)c2)C1 (relative stereo) (10 µM)
0: all assays above

CC(C)=CC[C@H](O)C1=CC(=O)c2c(O)ccc(O)c2C1=O [(-)-Alkannin] (2.5 µM)
0: all assays above

CC1CN(C(=O)Nc2ccc(Cl)c(Cl)c2)C(=Nc2ccc(F)cc2)S1 (stereo not given) (10 µM)
0: all assays above

N[C@H](Cc1c[nH]c2ccccc12)C(=O)N/N=C/c1ccc2nccnc2c1 [Rhosin (hydrochloride)] (10 µM)
0: all assays above
